PubChem BioAssay AID1159584 | Peter MacCallum Cancer Centre – 2016
The deposit covers about 18,000 reagents; below is an unselected part. Further read-outs or replicates are left out here. Not stated in the record: the amount of reagent, the time to read-out.

Test: 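Knock-downs that harm CDH1-null cells more than parental MCF10A cells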 (primary screen)
Cells: human MCF10A breast epithelial cells, parental and CDH1-null
Knock-down reagent: siRNA against human genes
Read-out: 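Cell viability by CellTiter-Glo ATP luminescence, each line scaled to the mean of mock wells across plates, then CDH1-null over parental ratio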
Direction: CDH1-null / parental viability ratio: higher = CDH1-null cells survive relatively better than parental

NEMP1
- CDH1-null / parental viability ratio: 0.83

BZW2
- CDH1-null / parental viability ratio: 0.8

TARP
- CDH1-null / parental viability ratio: 0.97

STK38
- CDH1-null / parental viability ratio: 1.2

TAS2R20
- CDH1-null / parental viability ratio: 0.9

OR13C5
- CDH1-null / parental viability ratio: 1.05

SUV39H1
- CDH1-null / parental viability ratio: 1.02

OIT3
- CDH1-null / parental viability ratio: 1.02

OR56A4
- CDH1-null / parental viability ratio: 1.11

SMPD2
- CDH1-null / parental viability ratio: 1.02

DCUN1D3
- CDH1-null / parental viability ratio: 1.1

IL4I1
- CDH1-null / parental viability ratio: 1.01

GMCL1
- CDH1-null / parental viability ratio: 0.89

PNMA8B
- CDH1-null / parental viability ratio: 1.24

TMEM217
- CDH1-null / parental viability ratio: 1.02

WFDC13
- CDH1-null / parental viability ratio: 1.27

TK2
- CDH1-null / parental viability ratio: 1.08

FAM217A
- CDH1-null / parental viability ratio: 1.19

TFDP1
- CDH1-null / parental viability ratio: 1.25

LRFN4
- CDH1-null / parental viability ratio: 1.27

TBX15
- CDH1-null / parental viability ratio: 0.86

UNC93A
- CDH1-null / parental viability ratio: 1.23

NAPB
- CDH1-null / parental viability ratio: 1.14

POLR1E
- CDH1-null / parental viability ratio: 0.8

PPP1R21
- CDH1-null / parental viability ratio: 0.84

TMEM50A
- CDH1-null / parental viability ratio: 1.53

SPRYD4
- CDH1-null / parental viability ratio: 1.06

Continued; the last 6 above are carried over.
UNC93A
- CDH1-null / parental viability ratio: 1.23

NAPB
- CDH1-null / parental viability ratio: 1.14

POLR1E
- CDH1-null / parental viability ratio: 0.8

PPP1R21
- CDH1-null / parental viability ratio: 0.84

TMEM50A
- CDH1-null / parental viability ratio: 1.53

SPRYD4
- CDH1-null / parental viability ratio: 1.06

SRD5A2
- CDH1-null / parental viability ratio: 1.18

FCMR
- CDH1-null / parental viability ratio: 0.81

APOL5
- CDH1-null / parental viability ratio: 1.09

TNRC6A
- CDH1-null / parental viability ratio: 1.07

VCPIP1
- CDH1-null / parental viability ratio: 0.94

TRIM8
- CDH1-null / parental viability ratio: 1.01

SLC18B1
- CDH1-null / parental viability ratio: 1.03

NOTUM
- CDH1-null / parental viability ratio: 0.85

RNASEH2C
- CDH1-null / parental viability ratio: 1.05

RHOQ
- CDH1-null / parental viability ratio: 1.11

INVS
- CDH1-null / parental viability ratio: 1.21

OR52K2
- CDH1-null / parental viability ratio: 0.96

KCNA3
- CDH1-null / parental viability ratio: 1.14

ASB16
- CDH1-null / parental viability ratio: 1.07

PLA2G2E
- CDH1-null / parental viability ratio: 0.87

PRKRA
- CDH1-null / parental viability ratio: 1.3

NUP93
- CDH1-null / parental viability ratio: 3.4

GIGYF1
- CDH1-null / parental viability ratio: 0.88
